Data on one compound can be found in PMC3615554 (Journal of biomolecular screening, 2012).

Assay [1] concerns A549-EGFRB cells. Nature of the assay: EGFRB assay, nuclei count readout. The assay is classed as cell-based.
Assay [2] addresses recombinant EGFR kinase. The following applies: read-out: Reported IC50 toward recombinant EGFR kinase; cited from earlier work.
Assay [3] has as its system HCC4011 cells (L858R EGFR mutation). Nature of the assay: Alamar Blue viability assay, HCC4011. The assay is classed as cell-based. The following applies: Homo sapiens, HCC4011, 120 h, read-out: Alamar Blue viability assay IC50 HCC4011. A general note: The colour change of resazurin is a common sign of viable cells or microbes.
The test system of assay [4] is H3255 cells (L858R EGFR mutation). The assay is described as follows: Alamar Blue viability assay, H3255. The following applies: Homo sapiens, NCI-H3255, 120 h, read-out: Alamar Blue viability assay IC50 H3255. The format is cell-based.
Assay [5] has as its system H2030 cells (wild type EGFR). The assay is described as follows: Alamar Blue viability assay, H2030. The assay is classed as cell-based. The following applies: Homo sapiens, NCI-H2030, 120 h, read-out: Alamar Blue viability assay IC50 H2030.
In assay [6] the test system is EGFR activation (granule formation) in A549-EGFRB cells. Nature of the assay: EGFRB assay, granule count readout. The format is cell-based. The following applies: read-out: HTS % inhibition at 10 μM Granule count.
For assay [7], the system named is A549 cells (wild type EGFR). Nature of the assay: Alamar Blue viability assay, A549. The following applies: Homo sapiens, A549, 120 h, read-out: Alamar Blue viability assay IC50 A549. The assay is classed as cell-based.

With `CO[C@@H]1[C@H](N(C)C(=O)c2ccccc2)C[C@H]2O[C@]1(C)n1c3ccccc3c3c4c(c5c6ccccc6n2c5c31)C(=O)NC4` [PKC 412], in assay [1] (inhibitors, dose response up to 10 μM, N.E. = no effect, * = partial inhibition), the “IC50 or EC50 (nM) Nuclei count” value is listed as “N.E.^*”. Moreover, the inhibition at 10 µM in assay [1] (read-out: HTS % inhibition at 10 μM Nuclei count) came out at 35%; in assay [6], 68%. The 50% inhibitory concentration (IC50) in assay [2] is 3 µM; in assay [3], 2.3 ± 0.6 µM; in assay [4], 1.9 ± 0.2 µM; in assay [5], 2 ± 1.7 µM; in assay [7], 0.34 ± 0.03 µM.

The inhibition is the share of the control response that was lost under treatment. In general, IC50 refers to the point on the concentration scale where inhibition reaches its midpoint.
